Assay results as given in PMC8270969.

The chains behind the UniProt entries cited, without tags or fusion partners. Where a name states a change or a piece, a line headed by the entry shows the natural chain unless it says otherwise. Residues count along the entry.
UniProt Q16610: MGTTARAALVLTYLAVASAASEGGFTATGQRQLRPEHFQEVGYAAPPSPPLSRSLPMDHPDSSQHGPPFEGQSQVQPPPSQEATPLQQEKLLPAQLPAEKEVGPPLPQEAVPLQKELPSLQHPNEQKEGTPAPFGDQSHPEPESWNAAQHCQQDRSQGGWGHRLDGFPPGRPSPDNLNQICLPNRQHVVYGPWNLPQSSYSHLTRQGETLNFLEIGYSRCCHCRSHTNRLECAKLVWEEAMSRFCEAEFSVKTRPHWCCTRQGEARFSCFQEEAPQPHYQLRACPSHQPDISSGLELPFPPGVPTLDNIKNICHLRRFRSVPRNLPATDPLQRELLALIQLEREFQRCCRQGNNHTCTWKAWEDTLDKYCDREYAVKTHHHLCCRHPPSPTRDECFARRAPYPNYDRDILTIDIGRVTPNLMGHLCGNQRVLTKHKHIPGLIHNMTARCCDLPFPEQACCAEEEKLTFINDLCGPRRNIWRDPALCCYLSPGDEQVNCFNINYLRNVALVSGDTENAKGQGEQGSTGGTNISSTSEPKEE
UniProt P05107, residues 23-769: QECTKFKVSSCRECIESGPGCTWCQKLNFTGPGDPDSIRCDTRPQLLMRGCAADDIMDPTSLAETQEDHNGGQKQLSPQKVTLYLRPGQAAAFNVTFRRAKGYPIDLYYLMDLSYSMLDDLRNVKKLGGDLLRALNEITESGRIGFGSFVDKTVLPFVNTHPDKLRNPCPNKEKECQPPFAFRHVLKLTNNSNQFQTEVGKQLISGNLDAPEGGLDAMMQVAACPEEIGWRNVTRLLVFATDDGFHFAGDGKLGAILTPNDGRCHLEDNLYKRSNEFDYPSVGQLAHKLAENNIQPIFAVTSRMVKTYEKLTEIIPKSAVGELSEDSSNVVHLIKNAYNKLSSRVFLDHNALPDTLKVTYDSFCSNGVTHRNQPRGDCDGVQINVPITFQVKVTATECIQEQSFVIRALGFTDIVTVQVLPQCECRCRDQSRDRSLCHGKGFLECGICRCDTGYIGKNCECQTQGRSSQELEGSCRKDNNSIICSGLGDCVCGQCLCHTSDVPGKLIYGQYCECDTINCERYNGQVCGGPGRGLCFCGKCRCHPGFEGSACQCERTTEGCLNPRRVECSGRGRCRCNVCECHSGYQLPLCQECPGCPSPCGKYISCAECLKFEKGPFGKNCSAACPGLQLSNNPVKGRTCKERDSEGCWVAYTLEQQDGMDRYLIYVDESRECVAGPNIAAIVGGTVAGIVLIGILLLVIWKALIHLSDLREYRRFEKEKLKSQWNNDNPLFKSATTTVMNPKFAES
UniProt P20702, residues 20-1163: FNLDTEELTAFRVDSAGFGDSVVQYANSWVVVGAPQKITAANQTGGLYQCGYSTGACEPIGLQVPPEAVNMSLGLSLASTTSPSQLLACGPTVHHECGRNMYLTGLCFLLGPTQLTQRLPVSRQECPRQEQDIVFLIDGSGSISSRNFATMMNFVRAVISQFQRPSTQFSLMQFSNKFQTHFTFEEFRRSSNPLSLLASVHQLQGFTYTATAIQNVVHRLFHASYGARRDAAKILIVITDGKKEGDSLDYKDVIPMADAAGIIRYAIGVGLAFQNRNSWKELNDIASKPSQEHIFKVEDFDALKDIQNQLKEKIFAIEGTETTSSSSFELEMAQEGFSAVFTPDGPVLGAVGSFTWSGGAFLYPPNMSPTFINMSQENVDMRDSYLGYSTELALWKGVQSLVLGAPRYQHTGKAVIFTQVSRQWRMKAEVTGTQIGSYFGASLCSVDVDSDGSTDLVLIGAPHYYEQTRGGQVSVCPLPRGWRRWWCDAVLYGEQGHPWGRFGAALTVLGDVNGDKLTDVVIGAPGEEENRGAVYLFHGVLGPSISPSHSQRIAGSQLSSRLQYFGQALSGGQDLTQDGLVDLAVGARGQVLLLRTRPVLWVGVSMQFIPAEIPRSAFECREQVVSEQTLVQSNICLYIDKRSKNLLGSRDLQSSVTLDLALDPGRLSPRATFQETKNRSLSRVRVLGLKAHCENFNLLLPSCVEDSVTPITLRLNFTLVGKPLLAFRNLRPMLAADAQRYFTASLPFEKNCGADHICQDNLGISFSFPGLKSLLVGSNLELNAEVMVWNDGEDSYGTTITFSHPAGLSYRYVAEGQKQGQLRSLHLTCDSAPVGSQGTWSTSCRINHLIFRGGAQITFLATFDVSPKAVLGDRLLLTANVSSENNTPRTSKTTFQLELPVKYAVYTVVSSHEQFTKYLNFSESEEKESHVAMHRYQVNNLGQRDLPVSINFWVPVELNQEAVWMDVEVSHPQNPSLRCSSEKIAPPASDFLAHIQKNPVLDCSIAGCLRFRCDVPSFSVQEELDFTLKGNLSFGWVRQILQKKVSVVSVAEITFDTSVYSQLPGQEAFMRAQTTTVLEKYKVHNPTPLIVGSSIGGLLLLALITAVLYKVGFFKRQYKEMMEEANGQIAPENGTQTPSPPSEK

Assays:
[1] = biological target: HA-tagged ECM1a mutant with VAQ instead of the GPR motif (human) (UniProt Q16610); experiment: co-IP; 0.5-1.0 mg whole-cell lysate of A8i cells expressing HA-ECM1a, HA-ECM1b or HA-ECM1a-MT in RIPA lysis buffer, 2 ug antibody or normal IgG, detection by WB
[2] = biological target: HA-tagged ECM1a mutant with VAQ instead of the GPR motif (human) (UniProt Q16610); experiment: proximity ligation; Duolink In Situ Red kit on cells cultured on cover slides at 75% confluence; controls with mouse IgG or the control kit
[3] = biological target: HA-tagged ECM1a mutant with VAQ instead of the GPR motif (human) (UniProt Q16610); experiment: co-IP; cell surface biotinylation (EZ-Link Sulfo-NHS-SS-Biotin, NeutrAvidin Agarose), isolated cell surface components precipitated with an HA antibody, WB for integrin αX or β2

Measured: binding

integrin β2 (from UniProt P05107 23-769) (receptor)
no binding: all assays above

integrin αX (from UniProt P20702 20-1163) (receptor)
no binding: all assays above

No constants are given. Whether binding was seen depends on the method and setting. Binding seen in cells or lysates may run through a third protein.
